These results are taken from PubChem BioAssay AID504706 (National Center for Advancing Translational Sciences (NCATS), 2011).

Hit rate of the full screen: of about 320,000 compounds, about 200 (0.062%) were called active. Roughly 6% stayed inconclusive and do not appear here. Calls follow the shape of the dose curve; as a rule, active = well fitted activation curve with a large enough effect; inconclusive = small, poorly fitted or top-dose-only effect; inactive = no such curve, though single readings can be large or run the other way. The list shows a part of the results, in another mix than the full data. Where no call is shown, the source filed none.
Potency is read from the fitted curve at half-maximal effect.

The nature of this experiment: qHTS assay for re-activators of p53 using a Luc reporter. Also: nearly all actives have a fitted effect of over 45% in size. As to activity change, positive = activation: % of control where 0% means no effect. The note with it: H1299 p53-A138V BP100-luciferase reporter, luminescence, 24 h; activity change, positive = activation: at 92.2 µM (top of the series). In a few lines:
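H1299 (p53-null), stable ts p53-A138V + BP100-Luc; 1000 cells/well, Opti-MEM/10% FBS; cpd 4 pt, 1:5; 24 h, 37 deg C, 5% CO2; detection reagent 10 min RT; luminescence.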
`Cc1ccc(C)c(/C=C/C(=O)c2ccccc(=O)c2O)c1`: the activity change, positive = activation turned out to be 52.7%.

Consider `COC(=O)/C(=C1/Oc2cc(C)oc(=O)c2S1)C(F)(F)F`, for which the “activity change, positive = activation” value was inactive: -36.3%.

For the compound `Cc1ccsc1/C=N/Nc1nc2ccccc2s1`, the activity change, positive = activation is 80.7%. `Cc1ccc(C(=O)COC(=O)c2cccc(N3C(=O)c4c(C)nc5ccccc5c4C3=O)c2)cc1C`: the Potency is active: 35.5 µM. Consider `O=[N+]([O-])c1ccc(/C=N/Nc2nc3ccccc3o2)cc1`, for which the activity change, positive = activation was 34.7%. In the case of `Cn1c(N2CCN(C(c3ccccc3)c3ccccc3)CC2)nc2ccccc21`, the “activity change, positive = activation” value is inactive: -41.5%. On the same count and under the same terms, with `Cc1ccc2c(COC(=O)C3=COCCO3)cc(=O)oc2c1` the figure was 69.1%; with `O=C(Nc1ccc(N2CCCC2)cc1)c1cccc(Cl)c1`, 48%; with `c1ccc2nc(-c3ccc(N4CCOCC4)cc3)ccc2c1`, 22.5%. Same read-out and setting: with `Cc1ccc(S(=O)(=O)NCCC(=O)Nc2ccc(C)cc2C(=O)c2ccccc2)cc1` the figure was 43.3%. Still for that read-out and setting: with `COc1cccc(C(=O)Nc2nc(-c3ccc(S(=O)(=O)N4CCOCC4)cc3)cs2)c1` the figure was inactive: -28.3%. For the compound `Cc1cc2ncc(-c3cccs3)nc2cc1C`, the activity change, positive = activation came to 50.1%. In the case of `CCN(CC)c1ccc2nc3c4ccccc4c(=O)cc-3oc2c1`, the activity change, positive = activation is 41%.

Consider `Cc1ccc2oc(-c3ccc(C)c(NC(=S)NC(=O)c4cccs4)c3)nc2c1`, for which the activity change, positive = activation was found to be 125%. The same measure, in the same setting: with `FC(F)(F)c1ccnc(NCc2ccc(Cl)cc2)n1` the figure was 38.4%; with `COc1ccc(C(NC(=O)c2c(F)c(F)c(F)c(F)c2F)c2ccccc2)cc1` (configuration not stated), inactive: -24.9%; with `CCOc1ccc(CN2C(=O)c3ccccc3C2C(=O)NCc2cccnc2)cc1` (configuration not stated), 22.8%.

Consider `Cn1nnc(-c2ccc(OCc3ccccc3F)cc2)n1`, for which the activity change, positive = activation worked out at 38.2%. The same measure, in the same setting: the result for `Cc1nnnn1/C(=C\c1ccccc1)C(=O)OCC(=O)Nc1cccc(S(=O)(=O)N(C)C)c1` reads inactive: -44.4%; that for `CC(C)(C)NC(=O)NC(=O)COc1ccccc1C#N`, 54.9%. Regarding `COc1ccc2c(c1)O[C@H](c1ccc3c(c1)OCO3)[C@@H](OC(=O)Nc1cc(OC)c(OC)c(OC)c1)C2=O`, the “activity change, positive = activation” value was inactive: 3.57%. Still for that read-out and setting: with `O=c1c2ccccc2c(C=Nc2cccc(O)c2)c(O)n1-c1ccc2c(c1)OCO2` the figure was inactive: -33.1%. The same measure, in the same setting: with `O=C1/C(=C\c2cccs2)Sc2ccc3ccccc3c21` the figure was 69.1%.

`COc1ccc(-c2nc(-c3ccc(NC(=O)c4ccncc4)cc3)no2)cc1OC`: the activity change, positive = activation was determined as 68.8%. The same measure, in the same setting: the result for `O=C(Nc1ncc([N+](=O)[O-])s1)c1cccc([N+](=O)[O-])c1` reads 36.6%; that for `C/C(N)=C(/C#N)C(=O)CSc1nnc(-c2ccc3c(c2)OCO3)o1`, 38.7%. With `Cc1cccnc1NC(=O)c1ccc([N+](=O)[O-])o1`, the Potency is active: 11.2 µM. Regarding `O=C(Nc1ccc2c(c1)OCCO2)NC1CCCCC1`, the activity change, positive = activation amounted to 27.7%. With `O=C(CCNc1ccc(Cl)cc1)c1cccs1`, the Potency was active: 15.8 µM. Take `Cc1ccc(C(=O)N/N=C2\CCc3ccccc32)c(C)c1`: the activity change, positive = activation was 82.9%. On to `O=C(/C=C/Nc1ccc(Br)cc1F)c1ccccc1`, for which the activity change, positive = activation is 25.2%.

Take `Cc1cc(C)n(-c2ccc(C(=O)Nc3nc4ccccc4s3)cc2)n1`: the activity change, positive = activation came out at 42.3%.

As for `CS(=O)(=O)N1CCN(Cc2cc(=O)n3ccsc3n2)CC1`, the “activity change, positive = activation” value is inactive: -51.5%. Same read-out and setting: with `C=CCn1c(C)cc(C(=O)CSc2nc3ccccc3o2)c1C` the figure was 49.6%; with `COc1ccc(-c2cc3nnc(-c4ccccc4)nc3s2)cc1`, 61.5%. `Cc1ccc(-c2cc(=O)c3cc(C)ccc3[nH]2)cc1`: the Potency is active: 22.4 µM.

`CC1C/C(=C\c2cccnc2)C(=O)/C(=C/c2cccnc2)C1` (configuration not stated): the “activity change, positive = activation” value was inactive: -19.6%. For `O=C(Nc1ccc(-c2nc3ccccc3o2)cc1)C1CCCO1` (configuration not stated), the activity change, positive = activation came to 43.3%.

With `COc1ccc(-c2csc(Nc3ncccc3C)n2)cc1`, the Potency is active: 44.7 µM.

As to `O=C(N/N=C/c1ccccc1O)C1CC(=O)N(c2ccc(Cl)cc2)C1` (configuration not stated), the Potency is active: 31.6 µM.

Take `Cc1nnc(SCC(=O)Nc2ccc(-c3nc4ccccc4s3)cc2)s1`: the activity change, positive = activation was 76.7%. On the same count and under the same terms, with `COc1ccc2cc(-c3cc(C(=O)OCC(=O)Nc4c(C)n(C)n(-c5ccccc5)c4=O)c4ccccc4n3)ccc2c1` the figure was 49.3%; with `c1ccc2[nH]c(-c3ccnc4ccccc34)nc2c1`, inactive: 7.08%. Same read-out and setting: the result for `O=c1c(-c2ccc3c(c2)OCCO3)coc2cc(OC3OC(CO)C(O)C(O)C3O)ccc12` (configuration not stated) reads 36.6%; that for `Nc1ccc(-c2nc3ccccc3[nH]2)cc1`, 24.1%.

On to `CCc1cc2c(=O)n(Cc3ccco3)c(SCc3c(C)noc3C)nc2s1`, for which the “activity change, positive = activation” value was inactive: -22.6%.

Consider `Fc1cccc(/C=N/Nc2nncc3ccccc23)c1`, for which the activity change, positive = activation stood at 26.4%. Same read-out and setting: with `COc1ccc(OCc2cccc(C(=O)Nc3cc(C)on3)c2)cc1` the figure was 49.4%; with `COC(=O)c1[nH]c2ccc(F)cc2c1NC(=O)CCN1CC(C)OC(C)C1` (configuration not stated), inactive: -31.1%; with `CCOC(=O)CNC(=O)c1cc(-c2ccc3c(c2)OCCO3)oc1C`, 38.8%.

Consider `O=C(NCCOc1ccccc1F)c1cc(F)c(F)cc1Cl`, for which the activity change, positive = activation was determined as 24.6%. Still for that read-out and setting: with `Cc1cccc(Nc2cc(=O)[nH]c(=O)[nH]2)c1C` the figure was 35.3%.

As to `O=C(NCc1cccnc1)/C(=C\c1ccc(-c2cccc(Cl)c2)o1)S(=O)(=O)c1ccccc1`, the “activity change, positive = activation” value was inactive: -37%.

Take `Cc1ccc(NC(=O)c2ccc3nc[nH]c3c2)cc1C`: the activity change, positive = activation came to 139%. With `CCN(c1ccccc1)S(=O)(=O)c1ccc(C(=O)N(CCCN(C)C)c2nc3cc4c(cc3s2)OCO4)cc1`, the “activity change, positive = activation” value was inactive: -41.7%. In the case of `O=C(/C=C/Nc1ccc(F)cc1)c1ccco1`, the Potency is active: 44.7 µM.

With `Oc1ccc(-c2cnc(-c3ccc(O)cc3)nc2)cc1`, the Potency is active: 14.1 µM.

For the compound `O=C(c1ccc(-c2ccc([N+](=O)[O-])cc2)o1)N1CCCCC1`, the activity change, positive = activation worked out at 57.3%. The same measure, in the same setting: the result for `CC(C)Oc1ccc(C(=O)OC(C)C(=O)NC2CCCCC2C)cc1` (configuration not stated) reads inactive: -34%; that for `N#C/C(Cn1c[n+](NC(=O)Nc2ccccc2)cn1)=N/O`, 124%; that for `Cc1ccc(N/C=C/C(=O)c2ccccc2)cc1C`, 55.3%.

As to `O=C(Nc1ccc(COc2ccccc2)cc1)c1cccc([N+](=O)[O-])c1`, the activity change, positive = activation was 50.5%.
